Measurements reported in PubChem BioAssay AID1259308 (NCATS, 2017)
Purpose: 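Genes whose loss raises luciferase production in HEK293 cells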 (primary screen). System: human HEK293 embryonic kidney cells stably expressing firefly luciferase (HEK-CMV-Luc2-Hygro). Reagent: single siRNA against human genes, 0.8 pmol siRNA per well. Timing: 72 h. Measured: 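Luciferase light (ONE-Glo) measured on one replicate plate set and viability (CellTiter-Glo) on the other, scaled to a negative control siRNA, with robust z-scores and luciferase per cell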. Scale: total luciferase, z-score and total luciferase, % of control: higher = more reporter protein produced; luciferase per cell, z-score: higher = more reporter output per viable cell; viable cells, % of control: higher = more viable cells. Call rule: 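Active when the median/MAD z-score for overall luciferase is greater than 3; a gene was taken forward for validation with new siRNAs if at least two of its three siRNAs passed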. Calls: active = raised luciferase; inactive = no rise.
The deposit covers about 59,000 reagents; this is an unselected part. About 1,510 of them (2.6%) were called active. 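Calls use total luciferase alone and ignore viability, so some active siRNAs may act by altering cell number.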 Reagents against one gene are numbered here.

gene,reagent,"total luciferase, z-score","total luciferase, % of control","luciferase per cell, z-score","viable cells, % of control",outcome
WDR86,1,-0.718,67.6,-0.482,85.8,inactive
WDR86,2,-0.447,73,-0.601,95.5,inactive
WDR86,3,-1.16,58.8,-0.309,71.3,inactive
ZNF100,1,-0.273,76.5,0.418,76.5,inactive
ZNF100,2,-0.247,77,-0.639,102,inactive
ZNF100,3,-2.13,39.6,-2.59,87.5,inactive
TCL6,1,0.0894,83.7,0.874,74.3,inactive
TCL6,2,0.469,91.2,0.43,91,inactive
TCL6,3,0.75,96.8,0.806,87.5,inactive
CALN1,1,0.885,99.5,0.679,93,inactive
CALN1,2,0.762,97.1,0.401,97.6,inactive
CALN1,3,2.27,127,2.12,81.3,inactive
EEF2KMT,1,0.641,94.6,0.161,101,inactive
EEF2KMT,2,5.54,192,3.77,79.5,active
EEF2KMT,3,-0.38,74.3,-0.916,106,inactive
GNL3L,1,0.949,101,1.28,80.5,inactive
GNL3L,2,-0.246,77,-0.2,90.7,inactive
GNL3L,3,-1.69,48.3,-1.32,76.3,inactive
UGT1A6,1,-0.724,67.5,-1.31,106,inactive
UGT1A6,2,0.222,86.3,-0.423,108,inactive
UGT1A6,3,2.07,123,2.25,76,inactive
RAB3IP,1,0.822,98.2,1.82,68,inactive
RAB3IP,2,-0.173,78.4,-0.412,97.7,inactive
RAB3IP,3,2.77,137,1.74,96.9,inactive
NMBR,1,0.479,91.4,1.49,69,inactive
NMBR,2,0.488,91.6,-0.0922,105,inactive
NMBR,3,-0.0356,81.2,-0.0129,91,inactive
ARID3A,1,-0.863,64.7,-1.14,97.6,inactive
ARID3A,2,-1.43,53.5,-0.303,64.7,inactive
ARID3A,3,-0.0446,81,-0.392,100,inactive
ANP32E,1,0.568,93.2,0.2,98.8,inactive
ANP32E,2,-2.2,38.2,-2.38,80,inactive
ANP32E,3,-0.832,65.3,-1.07,96.7,inactive
NXPH1,1,-0.849,65,-0.682,86.9,inactive
NXPH1,2,0.171,85.3,0.444,84.8,inactive
NXPH1,3,-0.116,79.6,-0.947,114,inactive
NRBP2,1,4.45,170,3.9,68.2,active
NRBP2,2,-1.06,60.8,-1.65,105,inactive
NRBP2,3,-1.7,48.1,1.28,38.4,inactive

Active calls, of those listed so far:
gene,reagent,"total luciferase, z-score","total luciferase, % of control","luciferase per cell, z-score","viable cells, % of control",outcome
EEF2KMT,2,5.54,192,3.77,79.5,active
NRBP2,1,4.45,170,3.9,68.2,active
